Reference: patent US20050181978A1
No constants are given. Whether binding was seen depends on the method and setting. Some binding calls cover weakened binding; strength is not graded here.

Protein sequences, listed by entry. Tags and fused reporters are not part of them. Residues count along the entry.
UniProt P03951, residues 19-625: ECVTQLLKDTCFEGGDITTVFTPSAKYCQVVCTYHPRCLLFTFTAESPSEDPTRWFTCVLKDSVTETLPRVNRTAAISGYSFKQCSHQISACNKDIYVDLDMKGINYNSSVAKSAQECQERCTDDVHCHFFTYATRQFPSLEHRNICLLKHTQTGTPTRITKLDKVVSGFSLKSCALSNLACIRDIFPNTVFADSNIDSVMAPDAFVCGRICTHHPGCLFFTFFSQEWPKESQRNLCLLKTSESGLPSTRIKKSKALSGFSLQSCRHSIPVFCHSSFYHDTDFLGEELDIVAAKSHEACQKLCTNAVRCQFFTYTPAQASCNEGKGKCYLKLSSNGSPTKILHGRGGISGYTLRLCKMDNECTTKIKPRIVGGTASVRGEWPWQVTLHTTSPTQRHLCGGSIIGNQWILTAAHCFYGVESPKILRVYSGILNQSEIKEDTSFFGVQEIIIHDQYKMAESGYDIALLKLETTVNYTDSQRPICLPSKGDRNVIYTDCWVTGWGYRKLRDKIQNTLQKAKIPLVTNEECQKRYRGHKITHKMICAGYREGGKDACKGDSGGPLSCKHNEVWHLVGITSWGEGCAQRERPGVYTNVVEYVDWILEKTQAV

Key:
[1] = biological target: Recombinant factor XI from Heamatologic Technologies, biotinylated (UniProt P03951); assay: on-bead peptide library screen (BL121): biotinylated FXI + streptavidin-alkaline phosphatase, BCIP/NBT colour, blue beads Edman sequenced
[2] = biological target: Recombinant factor XI from Heamatologic Technologies, biotinylated (UniProt P03951); assay: on-bead peptide library screen (BL122): biotinylated FXI + streptavidin-alkaline phosphatase, BCIP/NBT colour, blue beads Edman sequenced
[3] = biological target: Recombinant factor XI from Heamatologic Technologies, biotinylated (UniProt P03951); assay: on-bead peptide library screen (BL124): biotinylated FXI + streptavidin-alkaline phosphatase, BCIP/NBT colour, blue beads Edman sequenced

SRWPWSVFPDFPD (C-terminus on Tentagel resin bead) [SEQ ID NO:03]
binding [1]: binds

SHFWRQWPDFSD (C-terminus on Tentagel resin bead) [SEQ ID NO:12]
binding [1]: binds

PQLRWHDFPDFGS (C-terminus on Tentagel resin bead) [SEQ ID NO:13]
binding [1]: binds

VDWQWSRFDDFPS (C-terminus on Tentagel resin bead) [SEQ ID NO:15]
binding [1]: binds

HPWFDDFPHLFQ (C-terminus on Tentagel resin bead) [SEQ ID NO:16]
binding [1]: binds

YKWIHHDDFPLV (C-terminus on Tentagel resin bead) [SEQ ID NO:17]
binding [2]: binds

FDRKRVHPDFPH (C-terminus on Tentagel resin bead) [SEQ ID NO:18]
binding [2]: binds

DVWDYVVFDDFPS (C-terminus on Tentagel resin bead) [SEQ ID NO:19]
binding [2]: binds

QQPIQRFPDFP (C-terminus on Tentagel resin bead) [SEQ ID NO:20]
binding [2]: binds

QAIFTRFPDFPN (C-terminus on Tentagel resin bead) [SEQ ID NO:21]
binding [2]: binds

DVWDYVVFDDFPS (C-terminus on Tentagel resin bead) [SEQ ID NO:04]
binding [1]: binds

EWFPDFPEGSDG (C-terminus on Tentagel resin bead) [SEQ ID NO:22]
binding [2]: binds

HTHAFPDFPPH (C-terminus on Tentagel resin bead) [SEQ ID NO:23]
binding [2]: binds

LVKGFPDFPNHN (C-terminus on Tentagel resin bead) [SEQ ID NO:24]
binding [2]: binds

GPFPYAYEDFPE (C-terminus on Tentagel resin bead) [SEQ ID NO:25]
binding [2]: binds

FYLKTRYYDFPE (C-terminus on Tentagel resin bead) [SEQ ID NO:26]
binding [2]: binds

FQARHTIGDFPA (C-terminus on Tentagel resin bead) [SEQ ID NO:27]
binding [2]: binds

RIKDFPSDSNTV (C-terminus on Tentagel resin bead) [SEQ ID NO:28]
binding [2]: binds

IWESHKVIEDFP (C-terminus on Tentagel resin bead) [SEQ ID NO:29]
binding [2]: binds

QWFSVSRYQDFD (C-terminus on Tentagel resin bead) [SEQ ID NO:30]
binding [2]: binds

QKDFHWRILPDF (C-terminus on Tentagel resin bead) [SEQ ID NO:31]
binding [2]: binds

QRWVPYDDFPSLRS (C-terminus on Tentagel resin bead) [SEQ ID NO:05]
binding [1]: binds

KIVKFPHTFPDL (C-terminus on Tentagel resin bead) [SEQ ID NO:32]
binding [2]: binds

HLYDFDLDNEY (C-terminus on Tentagel resin bead) [SEQ ID NO:33]
binding [2]: binds

KTILGDVDFDI (C-terminus on Tentagel resin bead) [SEQ ID NO:34]
binding [2]: binds

RQLHPFHHFHG (C-terminus on Tentagel resin bead) [SEQ ID NO:35]
binding [2]: binds

RSWLRYGYGH (C-terminus on Tentagel resin bead) [SEQ ID NO:36]
binding [2]: binds

FNWNNVDEYYDW (C-terminus on Tentagel resin bead) [SEQ ID NO:37]
binding [2]: binds

DQWDWEDYDEAW (C-terminus on Tentagel resin bead) [SEQ ID NO:38]
binding [2]: binds

YDIYDDYEIWA (C-terminus on Tentagel resin bead) [SEQ ID NO:39]
binding [2]: binds

YPKHIYADFPSTRL (C-terminus on Tentagel resin bead) [SEQ ID NO:40]
binding [3]: binds

YPRHIYPDFPTDTT (C-terminus on Tentagel resin bead) [SEQ ID NO:41]
binding [3]: binds

RHFHVFPDFPFVH (C-terminus on Tentagel resin bead) [SEQ ID NO:06]
binding [1]: binds

YLKHAWPDFPKLQQ (C-terminus on Tentagel resin bead) [SEQ ID NO:42]
binding [3]: binds

YVRHRFEDFPTALP (C-terminus on Tentagel resin bead) [SEQ ID NO:43]
binding [3]: binds

FPWHKYEDFPSPRT (C-terminus on Tentagel resin bead) [SEQ ID NO:44]
binding [3]: binds

QPAHRYPDFPRNNH (C-terminus on Tentagel resin bead) [SEQ ID NO:45]
binding [3]: binds

LPKTRFLDFPHVSF (C-terminus on Tentagel resin bead) [SEQ ID NO:46]
binding [3]: binds

LPPARYPDFPAAKK (C-terminus on Tentagel resin bead) [SEQ ID NO:47]
binding [3]: binds

IPKNRFSDFPDAQG (C-terminus on Tentagel resin bead) [SEQ ID NO:48]
binding [3]: binds

LPSFRFPDFPATKT (C-terminus on Tentagel resin bead) [SEQ ID NO:49]
binding [3]: binds

RVLNRYPDFPTTNQ (C-terminus on Tentagel resin bead) [SEQ ID NO:50]
binding [3]: binds

FFKKTYADFPTSQT (C-terminus on Tentagel resin bead) [SEQ ID NO:51]
binding [3]: binds

HHFPPFSHFPDLPQ (C-terminus on Tentagel resin bead) [SEQ ID NO:07]
binding [1]: binds

IFKKTYEDFPRFVY (C-terminus on Tentagel resin bead) [SEQ ID NO:52]
binding [3]: binds

VLHNKYDDFPRVKK (C-terminus on Tentagel resin bead) [SEQ ID NO:53]
binding [3]: binds

KVKHRFNDFPVWGN (C-terminus on Tentagel resin bead) [SEQ ID NO:54]
binding [3]: binds

RRLPLSRLPDFP (C-terminus on Tentagel resin bead) [SEQ ID NO:08]
binding [1]: binds

HPFFRGYPDFPD (C-terminus on Tentagel resin bead) [SEQ ID NO:09]
binding [1]: binds

HPWHLVYPDFPS (C-terminus on Tentagel resin bead) [SEQ ID NO:10]
binding [1]: binds

HDWLVRWPDFPS (C-terminus on Tentagel resin bead) [SEQ ID NO:11]
binding [1]: binds
